According to the supplement of paper PMC7858590:
Whole data set: some 3,800 compounds, median “cell shape (eccentricity) Z-score vs DMSO control” near 1.1, cut for the lowest 2% near -4.7. The list shows a part of the results.

What follows are molecules tested on human monocyte-derived macrophages (M0) (assay: cell shape (eccentricity) Z-score vs DMSO control; higher = more elongated, M2-like morphology). Conditions: 20 µM; 24 h; macrophage state: M0 (M-CSF).

SMILES	cell shape (Z-score)
COc1ccc(C2C(C(=O)Nc3ccccc3)=C(C)N=c3s/c(=C\c4cn(Cc5ccccc5)c5ccccc45)c(=O)n32)cc1 (stereo not drawn)	4.52
CNC[C@@H]1Oc2ccc(N(C)C)cc2CC(=O)N([C@@H](C)CO)C[C@@H]1C	3.41
COc1cc(SC)ccc1-c1nc2ccncc2[nH]1	0.475
CCN(CC)CCn1c(=O)c(Cc2ccc(OC)cc2)nc2ccccc21	0.381
CCCCCCCCCCC(C)(C)C(=O)Nc1c(OC)cc(OC)cc1OC	5.62
COc1ccc2[nH]c(S(=O)Cc3ncc(C)c(OC)c3C)nc2n1 (stereo not drawn)	-0.433
CCCCn1c(=O)c2c(ncn2CC(C)=O)n(CCCC)c1=O	0.547
C=C(C(=O)O)[C@@H]1CC[C@@]2(C)CC(=O)C=C(C)C2C1 (stereo partly drawn)	-1.55
C=CC1=C(C(=O)O)N2C(=O)[C@@H](NC(=O)/C(=N\OCC(=O)O)c3csc(N)n3)[C@H]2SC1	-0.525
COc1cc2nccc(Oc3ccc(NC(=O)Nc4ccc(F)cc4F)c(F)c3)c2cc1OC	8.2
COC(=O)C1=CO[C@@H](O[C@@H]2O[C@H](CO)[C@@H](O)[C@H](O)[C@H]2O)[C@@H]2[C@@H](C)[C@@H](OC(=O)C3=CO[C@@H](O[C@@H]4O[C@H](CO)[C@@H](O)[C@H](O)[C@H]4O)[C@@H]4[C@@H](C)[C@@H](OC(C)=O)C[C@H]34)C[C@H]12	1.7
CCN1CCCC1CNC(=O)c1cc(S(N)(=O)=O)ccc1OC (stereo not drawn)	3.86
Cc1ccc(C(=O)NCCCCCC(=O)Nc2ccc(F)cc2N)cc1	1.52
C=C[C@@]1(C)C[C@H](O)[C@@H]2[C@@H](OC(O)[C@H]2C)[C@@H]1C(=C)C (stereo partly drawn)	-1.32
CC(=O)Cc1cc(=O)c2c(C)cc(O)c(C3OC(CO)C(O)C(O)C3O)c2o1 (stereo not drawn)	-4.07
Cn1c(=O)[nH]c2ncn(C)c2c1=O	0.0791
COc1c(O[C@@H]2O[C@H](CO)[C@@H](O)[C@H](O)[C@H]2O)cc2oc(-c3ccc(O)cc3)cc(=O)c2c1O	-0.116
CC[C@H](NC(=O)[C@H](C)NC)C(=O)N1C[C@@H](O)C[C@H]1Cc1cc(F)cc2[nH]c(-c3[nH]c4cc(F)ccc4c3C[C@@H]3C[C@H](O)CN3C(=O)[C@H](CC)NC(=O)[C@H](C)NC)cc12	0.663
OC(Cn1cncn1)(Cn1cncn1)c1ccc(F)cc1F	2.84
Cc1c[nH]c(-c2cnc(NCCNc3ccc(C#N)cn3)nc2-c2ccc(Cl)cc2Cl)n1	-4.52
Oc1cc2c(c(Cl)c1O)CCNC[C@@H]2c1ccccc1	-0.12
CN1CCC(=C2c3ccccc3C=Cc3ccccc32)CC1	0.0396
CCCCCCn1c(=O)c2c(ncn2C)n(C)c1=O	3.63

Reformatted: 2 of the compounds above
SMILES | cell shape (Z-score)
CCCCn1c(=O)c2c(ncn2CC(C)=O)n(CCCC)c1=O | 0.547
COc1c(O[C@@H]2O[C@H](CO)[C@@H](O)[C@H](O)[C@H]2O)cc2oc(-c3ccc(O)cc3)cc(=O)c2c1O | -0.116
